PubChem BioAssay AID504791, Drosophila RNAi Screening Center, 2011
Assay: 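Factors in Argonaute-based small RNA production and activity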 (primary screen). Cell system: Drosophila S2-derived reporter cells. Knock-down reagent: long dsRNA against Drosophila genes, about 150-250 ng dsRNA per well (siRNA assay); about 80-120 ng (miRNA assay). Time to read-out: about 5 days (siRNA assay); about 4 days (miRNA assay). Challenge: copper sulfate induction of reporters: 25 µM (siRNA assay); 200 mM stated (miRNA assay), 1-2 days before reading. Read-out: 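Dual luciferase assay: Renilla to firefly signal ratio in each well, scaled to the mean ratio of its plate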. Hit rule: 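First-pass picks had plate-scaled ratios over 1.5 for the siRNA assay, over 1.6 for the miRNA assay, or under 0.6; two distinct dsRNAs had to score alike on retest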.
In all, the deposit lists about 23,000 reagents; shown is a random part of those with a known target gene and a result. Of all reagents, 199 (0.86%) are marked active. 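Plate-scaled ratios behind the calls are not deposited; printed light signals are raw; many rows marked increased or decreased are still called inactive.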 A plus sign joins genes that one reagent is predicted to hit. Not given: the direction of the score.

{"target":"Datp","PubChem SID":"SID104180894","stable assay Renilla, run 1 (luminescence)":5379,"stable assay firefly, run 1 (luminescence)":4.26e5,"Outcome":"inactive"}
{"target":"C15","PubChem SID":"SID104193287","stable assay Renilla, run 1 (luminescence)":3624,"stable assay firefly, run 1 (luminescence)":3.83e5,"Outcome":"inactive"}
{"target":"C15","PubChem SID":"SID104193961","stable assay Renilla, run 1 (luminescence)":5856,"stable assay firefly, run 1 (luminescence)":2.94e5,"Outcome":"inactive"}
{"target":"BaraB","PubChem SID":"SID104186212","stable assay Renilla, run 1 (luminescence)":6247,"stable assay firefly, run 1 (luminescence)":3.91e5,"Outcome":"inactive"}
{"target":"Zasp66","PubChem SID":"SID104188724","stable assay Renilla, run 1 (luminescence)":5899,"stable assay firefly, run 1 (luminescence)":2.96e5,"Outcome":"inactive"}
{"target":"Zasp66","PubChem SID":"SID104190423","stable assay Renilla, run 1 (luminescence)":6804,"stable assay firefly, run 1 (luminescence)":4.26e5,"Outcome":"inactive"}
{"target":"Zasp66","PubChem SID":"SID104190424","stable assay Renilla, run 1 (luminescence)":6850,"stable assay firefly, run 1 (luminescence)":4.93e5,"Outcome":"inactive"}
{"target":"Grip84","PubChem SID":"SID104200040","stable assay Renilla, run 1 (luminescence)":8390,"stable assay firefly, run 1 (luminescence)":4.89e5,"Outcome":"inactive"}
{"target":"Grip84","PubChem SID":"SID104204746","miRNA reporter change":"reporter ratio raised past the hit cutoff","Outcome":"inactive"}
{"target":"CG46491","PubChem SID":"SID104186357","stable assay Renilla, run 1 (luminescence)":16081,"stable assay firefly, run 1 (luminescence)":4.99e5,"Outcome":"inactive"}
{"target":"CG46491","PubChem SID":"SID104186358","stable assay Renilla, run 1 (luminescence)":6632,"stable assay firefly, run 1 (luminescence)":3.44e5,"Outcome":"inactive"}
{"target":"HLH54F","PubChem SID":"SID104187230","stable assay Renilla, run 1 (luminescence)":5946,"stable assay firefly, run 1 (luminescence)":3.59e5,"Outcome":"inactive"}
{"target":"PhKgamma","PubChem SID":"SID104200060","stable assay Renilla, run 1 (luminescence)":8234,"stable assay firefly, run 1 (luminescence)":5.03e5,"Outcome":"inactive"}

Continued, starting with the last 4 of the part before.
{"target":"CG46491","PubChem SID":"SID104186357","stable assay Renilla, run 1 (luminescence)":16081,"stable assay firefly, run 1 (luminescence)":4.99e5,"Outcome":"inactive"}
{"target":"CG46491","PubChem SID":"SID104186358","stable assay Renilla, run 1 (luminescence)":6632,"stable assay firefly, run 1 (luminescence)":3.44e5,"Outcome":"inactive"}
{"target":"HLH54F","PubChem SID":"SID104187230","stable assay Renilla, run 1 (luminescence)":5946,"stable assay firefly, run 1 (luminescence)":3.59e5,"Outcome":"inactive"}
{"target":"PhKgamma","PubChem SID":"SID104200060","stable assay Renilla, run 1 (luminescence)":8234,"stable assay firefly, run 1 (luminescence)":5.03e5,"Outcome":"inactive"}
{"target":"Gcna","PubChem SID":"SID104198345","stable assay Renilla, run 1 (luminescence)":8358,"stable assay firefly, run 1 (luminescence)":4.87e5,"Outcome":"inactive"}
{"target":"CG12831","PubChem SID":"SID104185971","stable assay Renilla, run 1 (luminescence)":6587,"stable assay firefly, run 1 (luminescence)":4.02e5,"Outcome":"inactive"}
{"target":"lectin-24A","PubChem SID":"SID104180396","stable assay Renilla, run 1 (luminescence)":7642,"stable assay firefly, run 1 (luminescence)":4.73e5,"Outcome":"inactive"}
{"target":"Septin1","PubChem SID":"SID104200365","stable assay Renilla, run 1 (luminescence)":5818,"stable assay firefly, run 1 (luminescence)":4.12e5,"Outcome":"inactive"}
{"target":"CG11426","PubChem SID":"SID104191450","stable assay Renilla, run 1 (luminescence)":7363,"stable assay firefly, run 1 (luminescence)":3.85e5,"Outcome":"inactive"}
{"target":"Dlip1","PubChem SID":"SID104198252","stable assay Renilla, run 1 (luminescence)":5852,"stable assay firefly, run 1 (luminescence)":4.67e5,"Outcome":"inactive"}
{"target":"CG42808 + CG42807","PubChem SID":"SID104186162","stable assay Renilla, run 1 (luminescence)":7199,"stable assay firefly, run 1 (luminescence)":3.51e5,"Outcome":"inactive"}
{"target":"CG42808 + CG42807","PubChem SID":"SID104186758","stable assay Renilla, run 1 (luminescence)":6427,"stable assay firefly, run 1 (luminescence)":3.08e5,"Outcome":"inactive"}
{"target":"Dsk","PubChem SID":"SID104192139","stable assay Renilla, run 1 (luminescence)":8029,"stable assay firefly, run 1 (luminescence)":4.74e5,"Outcome":"inactive"}
{"target":"CG16723","PubChem SID":"SID104194930","stable assay Renilla, run 1 (luminescence)":6255,"stable assay firefly, run 1 (luminescence)":4.15e5,"Outcome":"inactive"}
{"target":"Nup37","PubChem SID":"SID104194211","stable assay Renilla, run 1 (luminescence)":6807,"stable assay firefly, run 1 (luminescence)":2.69e5,"Outcome":"inactive"}
{"target":"Polr3D","PubChem SID":"SID104190277","stable assay Renilla, run 1 (luminescence)":7260,"stable assay firefly, run 1 (luminescence)":3.50e5,"Outcome":"inactive"}
{"target":"skd","PubChem SID":"SID104191690","stable assay Renilla, run 1 (luminescence)":5376,"stable assay firefly, run 1 (luminescence)":3.25e5,"Outcome":"inactive"}
{"target":"7SLRNA:CR42652 + 7SLRNA:CR32864","PubChem SID":"SID104202325","stable assay Renilla, run 1 (luminescence)":4532,"stable assay firefly, run 1 (luminescence)":3.68e5,"Outcome":"inactive"}
{"target":"cher","PubChem SID":"SID104196716","stable assay Renilla, run 1 (luminescence)":7482,"stable assay firefly, run 1 (luminescence)":2.76e5,"Outcome":"inactive"}
